Test results published in PubChem BioAssay AID274 (DTP/NCI, 2004).
The list is a part of this screen's results and no random one: it covers a few groups of compounds. Other doses and runs of a compound may be missing. T/C is the treated group as % of the vehicle group. Some doses have a count of surviving animals in place of a T/C: the source files T/C as zero there, which appears to mark a toxic dose or a test without result, not a measured value. Some survivor counts are full or nearly so, which does not show that the dose was tolerated: the source hardly ever lists a survival T/C far under the control, and the zero likely stands for such cases as well. Counts of survivors are from the toxicity check (mostly the fifth day) where no day follows; animals may have died later. Schedules are NCI's codes, taken here to give the interval after Q, in days (D) or hours (H), and the number of doses after X. Some complexes appear as separate parts, the way the source draws them; their charges need not add up. Some doses were run more than once; their values stand side by side, smallest first. For survival time, the PubChem record calls one and a half times the control and up active, and a quarter to a half above the control has no call in these data; cut-offs in other NCI protocols can differ. Some T/C values are followed by the survivors on the day toxicity was checked, most often the fifth; without a count or a note in brackets, all were alive then.

System: BDF1 mice, Lewis lung carcinoma iv, survival T/C
Assay: NCI In Vivo Anticancer Drug Screen. Data for tumor model Lewis Lung Carcinoma (intravenous) in B6D2F1 (BDF1) mice
Conditions: T/C endpoint: median survival time, schedule: Q01DX009 (ip), higher T/C = longer survival
Method: The antitumor activity of compounds was measured in mice bearing transplantable tumors. Survival or tumor size were measured and the results are expressed as the measurement made in the treated group (T) divided by the measurement made in the vehicle treated control group (C). The tumor model used in this assay is Lewis Lung Carcinoma (intravenous) in B6D2F1 (BDF1) mice

[1] = dose: 25.0 mg/kg/injection, vehicle: saline with Tween-80
[2] = dose: 50.0 mg/kg/injection, vehicle: saline with Tween-80
[3] = dose: 100.0 mg/kg/injection, vehicle: saline with Tween-80
[4] = dose: 200.0 mg/kg/injection, vehicle: saline with Tween-80
[5] = dose: 400.0 mg/kg/injection, vehicle: saline with Tween-80

With ClC1CSC1 as the compound, how does the T/C [1] read?
The T/C was 97 % of control.

What about the T/C [2] of the same compound?
The T/C was 95 % of control.

And the T/C [3]?
Its T/C is 106 % of control.

And the survivor count [4]?
Its survivor count is 3 of 10.

What about the survivor count [5] of the same compound?
Its survivor count is 0 of 10.

With NC(=O)c1[nH]cnc1/N=N\N(CCCl)CCCl as the compound, how does the T/C (dose: 12.5 mg/kg/injection, vehicle: saline with Tween-80) read?
The T/C was 130 % of control.

What about the T/C [1] of the same compound?
Its T/C is 146 % of control.

And the T/C [2]?
Its T/C is 256 % of control.

What about the T/C [3] of the same compound?
The T/C was 89 % of control.

What about the survivor count [4] of the same compound?
The survivor count was 10 of 10.

What about the survivor count [5] of the same compound?
The survivor count was 9 of 10.

Which results are given for CC1(C)CN1P(=O)(Nc1ncccn1)N1CC1(C)C (centres undefined)?
T/C (dose: 12.5 mg/kg/injection, vehicle: saline): 109 % of control; T/C (dose: 25.0 mg/kg/injection, vehicle: saline): 100 % of control; T/C (dose: 50.0 mg/kg/injection, vehicle: saline): 100 % of control; T/C (dose: 100.0 mg/kg/injection, vehicle: saline): 90 % of control; T/C (dose: 200.0 mg/kg/injection, vehicle: saline): 100 % of control; T/C (dose: 400.0 mg/kg/injection, vehicle: saline): 97 % of control

Which T/C (dose: 12.5 mg/kg/injection, vehicle: Klucel (hydroxypropylcellulose) (HPC)) does the source give for CC(=O)OC(SC(OC(C)=O)C(Cl)(Cl)Cl)C(Cl)(Cl)Cl (centres undefined) here?
The T/C was 98 % of control.

What about the T/C (dose: 25.0 mg/kg/injection, vehicle: Klucel (hydroxypropylcellulose) (HPC)) of the same compound?
The T/C was 96 % of control.

What about the T/C (dose: 50.0 mg/kg/injection, vehicle: Klucel (hydroxypropylcellulose) (HPC)) of the same compound?
The T/C was 112 % of control.

What about the T/C (dose: 100.0 mg/kg/injection, vehicle: Klucel (hydroxypropylcellulose) (HPC)) of the same compound?
Its T/C is 106 % of control [9 of 10 alive].

What about the survivor count (dose: 200.0 mg/kg/injection, vehicle: Klucel (hydroxypropylcellulose) (HPC)) of the same compound?
The survivor count was 3 of 10.

And the survivor count (dose: 400.0 mg/kg/injection, vehicle: Klucel (hydroxypropylcellulose) (HPC))?
The survivor count was 5 of 10.

For [Au].[C-]#N.[C-]#N, which T/C (dose: 0.62 mg/kg/injection, vehicle: saline) is on record?
Its T/C is 96 % of control.

And the T/C (dose: 1.25 mg/kg/injection, vehicle: saline)?
The T/C was 98 and 101 % of control.

What about the T/C (dose: 2.5 mg/kg/injection, vehicle: saline) of the same compound?
Its T/C is 98 and 104 % of control.

What about the T/C (dose: 5.0 mg/kg/injection, vehicle: saline) of the same compound?
The T/C was 97 and 111 % of control.

And the T/C (dose: 10.0 mg/kg/injection, vehicle: saline)?
Its T/C is 103 and 110 % of control.

And the survivor count (dose: 20.0 mg/kg/injection, vehicle: saline)?
Its survivor count is 0 of 10 and 4 of 10.
